Results are given in words; binding and its absence hold for the method and conditions named. Some binding calls cover weakened binding; strength is not graded here.
T1: CESA3-Cub (Arabidopsis thaliana) (UniProt Q941L0)
T1 sequence: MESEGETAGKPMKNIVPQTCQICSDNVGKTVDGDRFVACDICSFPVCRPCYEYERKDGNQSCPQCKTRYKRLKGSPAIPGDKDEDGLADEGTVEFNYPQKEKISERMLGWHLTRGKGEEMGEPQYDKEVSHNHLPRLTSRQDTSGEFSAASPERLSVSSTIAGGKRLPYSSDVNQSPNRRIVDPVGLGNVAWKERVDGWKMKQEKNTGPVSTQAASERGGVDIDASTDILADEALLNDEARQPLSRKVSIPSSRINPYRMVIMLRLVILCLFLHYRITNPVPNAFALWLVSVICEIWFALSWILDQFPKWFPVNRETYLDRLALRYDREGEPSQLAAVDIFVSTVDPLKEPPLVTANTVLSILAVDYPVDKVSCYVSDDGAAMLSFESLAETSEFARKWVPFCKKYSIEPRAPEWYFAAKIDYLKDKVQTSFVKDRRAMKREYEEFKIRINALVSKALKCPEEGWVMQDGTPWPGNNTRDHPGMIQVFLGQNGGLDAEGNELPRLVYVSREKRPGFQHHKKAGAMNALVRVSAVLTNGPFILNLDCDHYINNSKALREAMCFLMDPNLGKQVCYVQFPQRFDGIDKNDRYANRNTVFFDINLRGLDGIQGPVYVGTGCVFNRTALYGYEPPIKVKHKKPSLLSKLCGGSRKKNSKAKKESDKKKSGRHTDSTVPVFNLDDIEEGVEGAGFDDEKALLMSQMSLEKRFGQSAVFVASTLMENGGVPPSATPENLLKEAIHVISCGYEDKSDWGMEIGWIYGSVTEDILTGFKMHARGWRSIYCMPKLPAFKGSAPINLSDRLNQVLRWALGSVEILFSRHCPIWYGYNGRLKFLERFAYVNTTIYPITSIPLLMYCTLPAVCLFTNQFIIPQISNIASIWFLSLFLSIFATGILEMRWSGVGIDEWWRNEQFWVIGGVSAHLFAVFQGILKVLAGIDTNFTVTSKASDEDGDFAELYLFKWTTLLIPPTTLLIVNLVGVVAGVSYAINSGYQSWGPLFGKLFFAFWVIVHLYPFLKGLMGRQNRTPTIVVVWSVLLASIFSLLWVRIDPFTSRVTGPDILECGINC

T2: CESA6-Cub (Arabidopsis thaliana) (UniProt Q94JQ6)
T2 sequence: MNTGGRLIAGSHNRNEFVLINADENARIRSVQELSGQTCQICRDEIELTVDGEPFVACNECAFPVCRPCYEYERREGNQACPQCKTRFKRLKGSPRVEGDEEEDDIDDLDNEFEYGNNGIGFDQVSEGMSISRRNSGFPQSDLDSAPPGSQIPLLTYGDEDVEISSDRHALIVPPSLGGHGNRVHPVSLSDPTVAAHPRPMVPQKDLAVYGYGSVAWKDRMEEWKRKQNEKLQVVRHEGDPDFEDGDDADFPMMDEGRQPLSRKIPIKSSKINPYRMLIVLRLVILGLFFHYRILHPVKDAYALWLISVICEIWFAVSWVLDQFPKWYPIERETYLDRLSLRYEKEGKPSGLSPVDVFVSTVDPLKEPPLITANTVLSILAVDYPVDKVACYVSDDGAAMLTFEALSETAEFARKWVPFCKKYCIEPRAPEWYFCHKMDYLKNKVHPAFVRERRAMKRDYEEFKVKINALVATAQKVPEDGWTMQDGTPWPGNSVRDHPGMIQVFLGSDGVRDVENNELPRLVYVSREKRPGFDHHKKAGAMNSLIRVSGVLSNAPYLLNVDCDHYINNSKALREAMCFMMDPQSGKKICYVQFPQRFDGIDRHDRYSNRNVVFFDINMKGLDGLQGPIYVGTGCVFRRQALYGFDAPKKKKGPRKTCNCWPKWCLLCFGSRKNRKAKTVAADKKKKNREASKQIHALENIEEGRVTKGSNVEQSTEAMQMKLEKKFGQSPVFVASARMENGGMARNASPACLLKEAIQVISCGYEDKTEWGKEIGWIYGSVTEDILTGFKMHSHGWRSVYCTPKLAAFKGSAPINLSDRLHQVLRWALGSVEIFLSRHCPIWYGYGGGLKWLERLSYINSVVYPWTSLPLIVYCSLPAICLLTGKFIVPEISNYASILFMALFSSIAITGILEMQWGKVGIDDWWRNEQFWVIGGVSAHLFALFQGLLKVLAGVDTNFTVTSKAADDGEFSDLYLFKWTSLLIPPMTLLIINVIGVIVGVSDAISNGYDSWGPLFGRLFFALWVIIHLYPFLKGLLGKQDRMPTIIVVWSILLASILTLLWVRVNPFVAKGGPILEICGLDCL


Assays:
[1] = target: T1, CESA3-Cub (Arabidopsis thaliana); experiment: two-hybrid; split-ubiquitin membrane-based yeast two-hybrid (SU-Y2H) screen for CESA interactive proteins, CESA3 and CESA6 as baits
[2] = target: T2, CESA6-Cub (Arabidopsis thaliana); experiment: as above
[3] = target: T1, CESA3-Cub (Arabidopsis thaliana); experiment: two-hybrid; split-ubiquitin yeast two-hybrid, pairwise: NubG-PAS2 co-expressed with CESA-Cub in S. cerevisiae THY.AP4, 30 °C; growth on dropout medium and beta-galactosidase (X-Gal, filter lift)
[4] = target: T2, CESA6-Cub (Arabidopsis thaliana); experiment: as above

Row | binding [1] | binding [2] | binding [3] | binding [4] | Binder
1 | binds | binds |  |  | …O2 (PAS2), prey clone found in the split-ubiquitin yeast two-hybrid screen (protein, UniProt Q8VZB2 1-221) MAGFLSVVRRVYLTLYNWIVFAGWAQVLYLAITTLKETGYENVYDAIEKPLQLAQTAAVLEILHGLVGLVRSPVSATLPQIGSRLFLTWGILYSFPEVRSHFLVTSLVISWSITEIIRYSFFGFKEALGFAPSWHLWLRYSSFLLLYPTGITSEVGLIYLALPHIKTSEMYSVRMPNILNFSFDFFYATILVLAIYVPGSPHMYRYMLGQRKRALSKSKRE
2 |  |  | binds | binds | NubG-PAS2 (protein, UniProt Q8VZB2 1-221) MAGFLSVVRRVYLTLYNWIVFAGWAQVLYLAITTLKETGYENVYDAIEKPLQLAQTAAVLEILHGLVGLVRSPVSATLPQIGSRLFLTWGILYSFPEVRSHFLVTSLVISWSITEIIRYSFFGFKEALGFAPSWHLWLRYSSFLLLYPTGITSEVGLIYLALPHIKTSEMYSVRMPNILNFSFDFFYATILVLAIYVPGSPHMYRYMLGQRKRALSKSKRE
